# Counter-ions that a name gives are not always drawn. This is one part of the list. The calls rarely recur for the same compound in another form.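 In K562 cells expressing nanoluciferase-fused kinases, luminescence was recorded at 4 h intervals between 2 and 18 h, normalized as percent of control with DMSO at 100% and a positive control at 0%. A significant (2 sigma) signal drop marks a time point as decreased. The authors' rule for a hit is not shown and takes in more than the number of time points.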
# Chains of the proteins cited; added tags and fusions are not shown.
# UniProt P28482, whole entry: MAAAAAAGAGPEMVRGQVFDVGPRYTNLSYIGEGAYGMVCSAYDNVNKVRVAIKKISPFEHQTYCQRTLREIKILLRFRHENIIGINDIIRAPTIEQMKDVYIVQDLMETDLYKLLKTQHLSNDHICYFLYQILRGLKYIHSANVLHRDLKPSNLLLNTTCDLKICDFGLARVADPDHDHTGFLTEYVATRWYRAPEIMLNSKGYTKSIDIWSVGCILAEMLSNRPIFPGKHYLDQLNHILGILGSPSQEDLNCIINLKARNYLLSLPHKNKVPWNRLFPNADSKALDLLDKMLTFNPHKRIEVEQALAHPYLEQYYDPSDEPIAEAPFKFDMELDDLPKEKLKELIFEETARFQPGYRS
# UniProt P31152, whole entry: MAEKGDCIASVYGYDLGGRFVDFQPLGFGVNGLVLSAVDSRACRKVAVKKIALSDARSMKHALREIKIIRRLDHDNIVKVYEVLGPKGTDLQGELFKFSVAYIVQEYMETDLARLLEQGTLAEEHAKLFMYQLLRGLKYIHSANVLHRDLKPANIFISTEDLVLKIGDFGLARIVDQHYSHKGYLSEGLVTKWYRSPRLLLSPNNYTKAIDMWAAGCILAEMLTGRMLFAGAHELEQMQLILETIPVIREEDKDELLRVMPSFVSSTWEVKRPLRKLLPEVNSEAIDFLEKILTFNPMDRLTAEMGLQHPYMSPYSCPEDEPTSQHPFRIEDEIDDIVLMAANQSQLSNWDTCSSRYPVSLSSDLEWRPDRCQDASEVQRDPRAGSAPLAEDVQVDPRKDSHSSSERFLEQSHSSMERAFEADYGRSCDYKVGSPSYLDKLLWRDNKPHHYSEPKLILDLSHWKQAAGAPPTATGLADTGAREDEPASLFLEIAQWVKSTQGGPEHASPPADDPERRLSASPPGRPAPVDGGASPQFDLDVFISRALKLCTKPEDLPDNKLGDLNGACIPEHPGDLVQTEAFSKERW
# Target: MAPK1 (UniProt P28482)
# Test: number of time points (of 5) at which kinase-Nluc abundance scored as decreased, DMSO-normalised (count); higher = more persistent destabilization
# Settings: K562; 2-18 h
row,SMILES,number of time points
1,C=CC(=O)N1CCC(c2ccc(C(N)=O)c(-c3ccc(Oc4ccccc4)cc3)n2)CC1 [Orelabrutinib] (2.5 µM),0
2,CN1C(=O)N[C@@H](Cc2c[nH]c3c(Cl)cccc23)C1=O [Necrostatin 2 (S enantiomer)] (10 µM),0
3,N#Cc1cc(-c2ccnc(Nc3ccc(N4CCOCC4)cc3)n2)ccc1OC1CCOCC1 (10 µM),0
4,COc1cccc(-c2cc(=O)c3ccccc3o2)c1N (10 µM),0
5,Nc1ccc(Sc2nc3ccccc3s2)c(Cl)c1 [KRAS inhibitor-9] (10 µM),0

# Target: MAPK4 (UniProt P31152)
# Test: as above
# Settings: K562; 2-18 h
row,SMILES,number of time points
1,Cc1cnc(Cl)nc1-c1ccc(N(Cc2ccc(CNC(=O)C(F)F)cc2)C(=O)c2ccc(O)cc2O)cc1 (10 µM),0
2,COc1cc2c(cc1OC)[C@@H]1C(=O)c3ccc4c(c3O[C@@H]1CO2)C=CC(C)(C)O4 [Deguelin] (10 µM),0
3,CC(C)(CCCCCC(O)CCCCCC(C)(C)C(=O)O)C(=O)O [Bempedoic acid] (10 µM),0
4,COc1cc2nnc(C(N)=O)c(Nc3ccc(C)cc3F)c2cc1N1CCN(CCO)CC1 (2.5 µM),0
5,O=C(Nc1ccc(Cl)cc1)C1CN(C(=O)c2cccc(-c3ccco3)c2)CC(F)(F)C1 (stereo not drawn) (2.5 µM),0
6,CC(=O)O[C@@H]1[C@@H](OC(C)=O)[C@@H](O)[C@H](Oc2c(-c3ccc(O)cc3)oc3cc(O)cc(O)c3c2=O)O[C@H]1C (10 µM),0
7,COc1cc2nc(-c3cc(F)ccc3O)nc(N[C@@H]3CNC[C@H]3C(C)(C)O)c2cc1OC (2.5 µM),0
8,C=CC(=O)Nc1cccc(Oc2nc(Nc3ccc(N4CCN(C)CC4)cc3OC)ncc2Cl)c1 (10 µM),0
9,C=CC(=O)Nc1cc(Nc2nccc(-c3cn(C)c4ccccc34)n2)c(OCC(F)(F)F)nc1N(C)CCNC [AST5902  (trimesylate)] (2.5 µM),0
10,O=C1C=CC2=C3c4cc(O)c(O)cc4CC3(O)COC2=C1O (stereo not drawn) [Hematein] (10 µM),0
11,CCC(F)(F)c1cc(N2CCC(S(C)(=O)=O)CC2)nc2sc(C(N)=O)c(N)c12 (10 µM),0
12,Cn1cc(C2=C(c3ccc(Cl)cc3Cl)C(=O)NC2=O)c2ccccc21 (10 µM),0
13,CCOC(=O)c1c(N2CCc3ccc(OC)cc3C2)oc(C=C2C=Nc3ncccc32)c1O (10 µM),0
14,O=C(COc1ccc(Cl)cc1)NC1CCC(NC(=O)COc2ccc(Cl)cc2)CC1 (stereo not drawn) [ISRIB (trans-isomer)] (10 µM),0
15,COc1ccc(CCNCc2ccc(OCc3ccc(Cl)nc3)c(OC)c2)cc1OC [SBE13 (Hydrochloride)] (10 µM),0
16,Cc1cccc(CC(=O)N2CCc3c2ccc(-c2cn(C)c4ncnc(N)c24)c3F)n1 (10 µM),0
17,COc1cc(N2CCC(N3CCN(C)CC3)CC2)ccc1Nc1ncnc(Nc2ccccc2S(=O)(=O)C(C)C)n1 (10 µM),0
18,CC(C)(Oc1ccc(Cl)cc1)C(=O)Nc1ccc(OCc2ccc(C#N)cc2)cc1 [AMPK activator 4] (10 µM),0
19,Cc1cc(N2CCOCC2)ccc1Nc1nc(NC2CCCCC2)c2[nH]cnc2n1 (10 µM),0

row,SMILES,number of time points
1,COC(=O)N1CCN(C2CCC(Nc3nc(Nc4cnn(C)c4)nc4ccc(CC#N)nc34)CC2)CC1 (stereo not drawn) (10 µM),0
2,CN(C)CCn1cc2cc(NC(=O)c3cccc(C(F)(F)F)n3)c(C(C)(C)O)cc2n1 (10 µM),0
3,CCOc1cc(N2CCC(O)CC2)ccc1Nc1ncc2c(n1)N(C1CCCC1)CCC(=O)N2C (2.5 µM),0
4,CCC[C@H](C)Oc1nc(N)c2[nH]c(=O)n(CCCCCN3CCCCC3)c2n1 (10 µM),0
5,Fc1ccc(-c2nc3n(c2-c2ccncc2)CCS3)cc1 (10 µM),0
6,CC(ONC(=O)c1cc(C(F)(F)F)cc(C(F)(F)F)c1)C(=O)Nc1ccc(Cl)cc1 (stereo not drawn) (2.5 µM),0
7,O=C(Nc1ccccc1C(=O)NC1CCCCNC1=O)c1cc2ccccc2s1 (stereo not drawn) (10 µM),0
8,N#CC(=C(/N)Sc1ccccc1N)/C(C#N)=C(\N)Sc1ccccc1N (10 µM),0
9,Nc1ccc(O)c(C(=O)O)c1 [5-Aminosalicylic Acid] (10 µM),0
10,CNCc1ccccc1Sc1cccc2ccccc12 [IFN alpha-IFNAR-IN-1 (hydrochloride)] (10 µM),1
11,CCCCNc1ncc2c(-c3ccc(F)cc3)nn(CC3CCC(N)CC3)c2n1 (stereo not drawn) (2.5 µM),0
12,Cc1ncsc1-c1ccc(CNC(=O)[C@@H]2C[C@@H](O)CN2C(=O)[C@@H](NC(=O)COCCOc2ccc(-c3cc(Nc4ccc(OC(F)(F)F)cc4)ncn3)cc2)C(C)(C)C)cc1 (2.5 µM),1
13,Cn1cnc2c(F)c(Nc3ccc(Br)cc3F)c(C(=O)NOCCO)cc21 [Binimetinib] (10 µM),0
14,O=C1NC(=O)C(Cc2c[nH]c3c(Cl)cccc23)N1 (stereo not drawn) [Necroptosis-IN-1] (10 µM),0
15,C=CC(=O)N1CCC(c2ccc(C(N)=O)c(-c3ccc(Oc4ccccc4)cc3)n2)CC1 [Orelabrutinib] (2.5 µM),0
16,CN1C(=O)N[C@@H](Cc2c[nH]c3c(Cl)cccc23)C1=O [Necrostatin 2 (S enantiomer)] (10 µM),0
17,N#Cc1cc(-c2ccnc(Nc3ccc(N4CCOCC4)cc3)n2)ccc1OC1CCOCC1 (10 µM),0
18,COc1cccc(-c2cc(=O)c3ccccc3o2)c1N (10 µM),0
19,Nc1ccc(Sc2nc3ccccc3s2)c(Cl)c1 [KRAS inhibitor-9] (10 µM),0

# Reference: the supplement of paper PMC12823440, “Inhibitors supercharge kinase turnover through native proteolytic circuits” (Nature, 2025)
